In patent publication US11225605B2, “Polymerizable liquid crystal compound, method for producing polymerizable liquid crystal compound, polymerizable liquid crystal composition, optically anisotropic film, optical film, polarizing plate, and image display device” (FUJIFILM Corporation, priority 2017, dated 2022):
“Also recorded” adds a separate entry of the source.

Assay: Formation of optically anisotropic film and retardation measurement (KOBRA-21ADH)
Conditions: for Formation of optical film / optically anisotropic film: result in words; for Re (450)/ Re (550): optical film; for Re (450): retardation of optical film at wavelength 450 nm; for Re (550): retardation of optical film at wavelength 550 nm
Procedure: A polymerizable composition (a coating liquid for an optically anisotropic film) having the following composition was prepared and applied through spin coating onto on a glass substrate having a polyimide alignment film (SE-150 manufactured by Nissan Chemical Industries, Ltd.) which had been subjected to a rubbing treatment. The coated film was subjected to an alignment treatment at a temperature shown in Table 5 below to form a liquid crystal layer. Thereafter, the liquid crystal layer was cooled to an exposure temperature, described in Table 5 below and subjected to alignment fixation by ultraviolet irradiation of 1,000 mJ/cm^2 to form an optically anisotropic film, thereby obtaining an optical film for wavelength dispersion measurement.
With regard to the prepared optical film, a retardation value (Re (450)) at a wavelength of 450 nm and a retardation value (Re (550)) at a wavelength of 550 nm were measured using an automatic birefringence meter (KOBRA-21ADH, manufactured by Oji Scientific Instruments Co., Ltd.), and Re (450)/Re (550) was calculated.

Which “Formation of optical film / optically anisotropic film” value (listed as Comparative Example 6) does the source give for `CCC1CCC(C2CCC(C(=O)Oc3cc(C(C)(C)C)c(OC(=O)C4CCC(C5CCC(CC)CC5)CC4)c4c3SC(=C(C#N)C#N)S4)CC2)CC1` (centres unmarked) [Compound I-1f] here?
Its value is “crystals precipitated; also recorded: not possible to form an optically anisotropic film”.

For `C=CC(=O)OCC(C)(C)COC(=O)CCC(=O)OCCc1ccc(OC(=O)C2CCC(C(=O)Oc3ccc(OC(=O)C4CCC(C5CCC(CC)CC5)CC4)c4c3SC(=C(C#N)C#N)S4)CC2)cc1` (centres unmarked) [Compound A-1], which “Re (450)/ Re (550)” value is on record?
The value was 0.71.

What about the “Re (450)” value of the same compound?
Its value is 102.

What about the “Re (550)” value of the same compound?
Its value is 143.

With `C=CC(=O)OCC(C)(C)COC(=O)CCC(=O)OCCc1ccc(OC(=O)C2CCC(C(=O)Oc3cc(C(C)(C)C)c(OC(=O)C4CCC(C(=O)Oc5ccc(CCOC(=O)CCC(=O)OCC(C)(C)COC(=O)C=C)cc5)CC4)c4c3SC(=C(C#N)C#N)S4)CC2)cc1` (centres unmarked) [Compound C-1] as the compound, how does the “Formation of optical film / optically anisotropic film” value (listed as Comparative Example 3) read?
The value was “alignment failure; also recorded: not possible to form an optically anisotropic film”.

For `C=CC(=O)OCC(C)(C)COC(=O)CCC(=O)OCCc1ccc(OC(=O)C2CCC(C(=O)Oc3c(C)cc(OC(=O)C4CCC(C5CCC(CC)CC5)CC4)c4c3SC(=C(C#N)C#N)S4)CC2)cc1` (centres unmarked) [Compound B-1], which “Re (450)/ Re (550)” value is on record?
The value was 0.73.

What about the “Re (450)” value of the same compound?
The value was 96.

What about the “Re (550)” value of the same compound?
Its value is 132.

With `C=CC(=O)OCC(C)(C)COC(=O)CCC(=O)OCCc1ccc(OC(=O)C2CCC(C(=O)Oc3cc(C(C)(C)C)c(OC(=O)C4CCC(C5CCC(CC)CC5)CC4)c4c3SC(=C(C#N)C#N)S4)CC2)cc1` (centres unmarked) [Compound I-13] as the compound, how does the “Re (450)/ Re (550)” value read?
Its value is 0.74.

And the “Re (450)” value?
The value was 112.

What about the “Re (550)” value of the same compound?
The value was 151.

Which “Re (450)/ Re (550)” value does the source give for `C=CC(=O)OCCCCCCOc1ccc(OC(=O)C2CCC(C(=O)Oc3cc(C(C)(C)C)c(OC(=O)C4CCC(C(=O)Oc5ccc(OCCCCCCOC(=O)C=C)cc5)CC4)c4c3SC(=C(C#N)C#N)S4)CC2)cc1` (centres unmarked) [Compound E-1] here?
The value was 0.85.

What about the “Re (450)” value of the same compound?
Its value is 123.

What about the “Re (550)” value of the same compound?
Its value is 145.

What does the source list for `C=CC(=O)OCCOC(=O)CCC(=O)OCCc1ccc(OC(=O)C2CCC(C(=O)Oc3cc(C(C)(C)C)c(OC(=O)C4CCC(C(=O)Oc5ccc(CCOC(=O)CCC(=O)OCCOC(=O)C=C)cc5)CC4)c4c3SC(=C(C#N)C#N)S4)CC2)cc1` [Compound D-1]?
Re (450)/ Re (550): 0.85; Re (450): 73; Re (550): 86

Which “Re (450)/ Re (550)” value does the source give for `C=CC(=O)OCCCCCCOc1ccc(OC(=O)C2CCC(C(=O)Oc3c(C(C)(C)C)cc(OC(=O)C4CCC(C5CCC(CC)CC5)CC4)c4c3SC(=C(C#N)C#N)S4)CC2)cc1` (centres unmarked) [Compound I-3] here?
Its value is 0.77.

And the “Re (450)” value?
The value was 110.

What about the “Re (550)” value of the same compound?
Its value is 143.

For `C=CC(=O)OCCOC(=O)CCC(=O)OCCc1ccc(OC(=O)C2CCC(C(=O)Oc3c(C(C)(C)C)cc(OC(=O)C4CCC(C5CCC(CC)CC5)CC4)c4c3SC(=C(C#N)C#N)S4)CC2)cc1` (centres unmarked) [Compound I-2], which “Re (450)/ Re (550)” value is on record?
Its value is 0.75.

What about the “Re (450)” value of the same compound?
Its value is 91.

And the “Re (550)” value?
The value was 121.
